# Experimental data from PMC4476799, “Englerin A Agonizes the TRPC4/C5 Cation Channels to Inhibit Tumor Cell Line Proliferation” (PLoS ONE, 2015).
# Further values from the same series stand in other lists.
# Tested on: cancer cell lines from the cancer cell line encyclopedia (CCLE)
# Experiment: Cell line profiling (CLiP) proliferation experiment
# Format: cell-based
# Design: ACTIVITY_AREA: scale not given here; AMAX: unit not given here
# Description: Compound profiling experiment and data analysis was performed as previously described. Data was imported and plotted using the Tibco Spotfire DXP application. Lines were categorized as sensitive, intermediate and refractory as follows: Amax<-40 & Inflection Point <2 ~ Sensitive, Amax>-20 & Inflection Point >10 ~ Refractory, all else were called Intermediate. Cancer Cell line HG-U133 Plus 2 data was processed and normalized as described. […] Five sets of refractory cell lines were generated from the pool of refractory cell lines trying to match the lineage composition of the set of sensitive cell lines. The limma package was used as previously described to perform the statistical comparison.
# [1] = cell line NCI-H1792 (lung, adenocarcinoma)
# [2] = cell line NCI-H2073 (lung, adenocarcinoma)
compound,measurement,setting,value
CC(C)[C@@]12C[C@@H](O)[C@@](C)(O1)[C@@H]1CC[C@@H](C)[C@H]1[C@@H]2OC(=O)/C=C/c1ccccc1 [Englerin B],AMAX,cell line NCI-H1781 (lung),-63.31
same,RESPONSE,cell line NCI-H1781 (lung),INTERMEDIATE
same,ACTIVITY_AREA,[1],40.56
same,AMAX,[1],-58.43
same,RESPONSE,[1],INTERMEDIATE
same,ACTIVITY_AREA,cell line NCI-H1793,61.94
same,AMAX,cell line NCI-H1793,-45.66
same,RESPONSE,cell line NCI-H1793,INTERMEDIATE
same,ACTIVITY_AREA,cell line NCI-H1944,49.5
same,AMAX,cell line NCI-H1944,-75.02
same,RESPONSE,cell line NCI-H1944,INTERMEDIATE
same,ACTIVITY_AREA,cell line NCI-H2023,80.88
same,AMAX,cell line NCI-H2023,-75.61
same,RESPONSE,cell line NCI-H2023,INTERMEDIATE
same,ACTIVITY_AREA,[2],37.97
same,AMAX,[2],-56.11
same,RESPONSE,[2],INTERMEDIATE
same,ACTIVITY_AREA,cell line NCI-H2106,11.07
same,AMAX,cell line NCI-H2106,-48.52
same,RESPONSE,cell line NCI-H2106,INTERMEDIATE
same,ACTIVITY_AREA,cell line NCI-H2122,59.74
same,AMAX,cell line NCI-H2122,-36.73
same,RESPONSE,cell line NCI-H2122,INTERMEDIATE
same,ACTIVITY_AREA,cell line NCI-H2170,17.29
same,AMAX,cell line NCI-H2170,-44.7
same,RESPONSE,cell line NCI-H2170,INTERMEDIATE
same,ACTIVITY_AREA,cell line NCI-H2172,44.13
same,AMAX,cell line NCI-H2172,-55.3
same,RESPONSE,cell line NCI-H2172,INTERMEDIATE
same,ACTIVITY_AREA,cell line NCI-H2330,44.98
same,AMAX,cell line NCI-H2330,-45.58
same,RESPONSE,cell line NCI-H2330,INTERMEDIATE
same,ACTIVITY_AREA,cell line NCI-H2405,32.39
same,AMAX,cell line NCI-H2405,-42.88
same,RESPONSE,cell line NCI-H2405,INTERMEDIATE
same,ACTIVITY_AREA,cell line NCI-H2452,32.7
same,AMAX,cell line NCI-H2452,-2.13
same,RESPONSE,cell line NCI-H2452,REFRACTORY
same,ACTIVITY_AREA,cell line OC 316,40.59
same,AMAX,cell line OC 316,-6.47
same,RESPONSE,cell line OC 316,REFRACTORY
same,ACTIVITY_AREA,cell line OMM2.3,18.16
same,AMAX,cell line OMM2.3,-44.55
same,RESPONSE,cell line OMM2.3,INTERMEDIATE
same,RESPONSE,cell line OMM2.5,REFRACTORY
same,RESPONSE,cell line ONCO-DG-1,INTERMEDIATE
same,RESPONSE,cell line OS-RC-2,INTERMEDIATE
same,ACTIVITY_AREA,cell line OUMS-23,39.54
same,AMAX,cell line OUMS-23,-76.24
same,RESPONSE,cell line OUMS-23,INTERMEDIATE
same,ACTIVITY_AREA,cell line OV7,174.64
same,AMAX,cell line OV7,-34.89
same,RESPONSE,cell line OV7,INTERMEDIATE
same,ACTIVITY_AREA,cell line OV56,34.53
same,AMAX,cell line OV56,-42.75
same,RESPONSE,cell line OV56,INTERMEDIATE
same,ACTIVITY_AREA,cell line OV-90,32.55
same,AMAX,cell line OV-90,-42.84
same,RESPONSE,cell line OV-90,INTERMEDIATE
same,ACTIVITY_AREA,cell line OVCAR-4,59.14
same,AMAX,cell line OVCAR-4,-50.24
same,RESPONSE,cell line OVCAR-4,INTERMEDIATE
same,ACTIVITY_AREA,cell line OVCAR-8,57.78
same,AMAX,cell line OVCAR-8,-69.26
same,RESPONSE,cell line OVCAR-8,INTERMEDIATE
same,ACTIVITY_AREA,cell line OVISE,51.17
same,AMAX,cell line OVISE,-68.44
same,RESPONSE,cell line OVISE,INTERMEDIATE
same,ACTIVITY_AREA,cell line OVSAHO,17.26
same,AMAX,cell line OVSAHO,-60.32
same,RESPONSE,cell line OVSAHO,INTERMEDIATE
same,ACTIVITY_AREA,cell line P3HR-1,71.41
same,AMAX,cell line P3HR-1,-54.24
same,RESPONSE,cell line P3HR-1,INTERMEDIATE
same,ACTIVITY_AREA,cell line P12-ICHIKAWA,32.54
same,AMAX,cell line P12-ICHIKAWA,-67.41
same,RESPONSE,cell line P12-ICHIKAWA,INTERMEDIATE
same,ACTIVITY_AREA,cell line P31/FUJ,32.81
same,AMAX,cell line P31/FUJ,-79.81
same,RESPONSE,cell line P31/FUJ,INTERMEDIATE
same,ACTIVITY_AREA,cell line PA-TU-8988S,32.08
same,AMAX,cell line PA-TU-8988S,-57.5
same,RESPONSE,cell line PA-TU-8988S,INTERMEDIATE
same,ACTIVITY_AREA,cell line PANC-1,38.24
same,AMAX,cell line PANC-1,-57.06
same,RESPONSE,cell line PANC-1,INTERMEDIATE
